The list shows only some results of the screen, not a fair sample: it is rich in T/C values a quarter to a half above the control, in often repeated tests (any T/C) and in doses without a T/C. Other doses and runs of a compound stand elsewhere. T/C: endpoint of the treated group in % of that of the vehicle group. Some doses have a count of surviving animals in place of a T/C: the source holds a T/C of zero for them, seemingly a mark for toxic or unscored doses. Some survivor counts are full or nearly so, which does not show that the dose was tolerated: survival well below the control is almost never listed, so the zero probably covers shortened survival too. Counts of survivors are from the toxicity check (mostly the fifth day) where no day follows; animals may have died later. Schedule codes are those of the source, read here as Q, the interval in days (D) or hours (H), X, the number of doses. Some doses were run more than once; their values stand side by side, smallest first. Where survival is the endpoint, the PubChem record calls one and a half times the control and up active, and a quarter to a half above the control has no call in these data; cut-offs in other NCI protocols can differ. Some T/C values are followed by the survivors on the day toxicity was checked, most often the fifth; where none is given, no animal had died by that day. Starred links: 1 amine or outer side, 2 acyl side, 3 side chain; linkers in the order of their positions; H or OH if unused. Positions of bridges follow the written chain, without caps; N, C: chain ends. Non-standard residues stand in square brackets, D forms with d. Residues, ends and D or L forms follow the SMILES beside them. Chains are numbered I, II in the order given. Actinocin(9to1) = Cc1c2oc3c(C)ccc(C(=O)[*:1])c3nc-2c(C(=O)[*:2])c(N)c1=O; NMeV = CN[CH](C(=O)O)C(C)C; Sar = CNCC(=O)O
Tested on: BDF1 mice, P388 leukemia ip, median survival T/C
Assay: NCI In Vivo Anticancer Drug Screen. Data for tumor model P388 Leukemia (intraperitoneal) in B6D2F1 (BDF1) mice
Conditions: T/C endpoint: median survival time, higher T/C = longer survival
Method in brief: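 Antitumour effect was judged in vivo: survival in drug-treated mice, normalised to that of vehicle-dosed controls, gives the reported T/C.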

[1] = dose: 400.0 mg/kg/injection, schedule: Q01DX010 (ip), vehicle: water

CCNC(=O)OCc1c(COC(=O)NCC)c(-c2ccc(F)cc2)n2c1CCC2
T/C (dose: 12.5 mg/kg/injection, schedule: Q01DX009 (ip), vehicle: other): 149 % of control
survivor count (dose: 50.0 mg/kg/injection, schedule: Q01DX009 (ip), vehicle: other): 2 of 6
survivor count (dose: 100.0 mg/kg/injection, schedule: Q01DX009 (ip), vehicle: other): 1 of 6
survivor count (dose: 200.0 mg/kg/injection, schedule: Q01DX009 (ip), vehicle: other): 0 of 6

O=C1C=CCCCC1
T/C (dose: 100.0 mg/kg/injection, schedule: Q01DX009 (ip), vehicle: saline with Tween-80): 131 % of control
survivor count (dose: 150.0 mg/kg/injection, schedule: Q01DX009 (ip), vehicle: saline with Tween-80): 4 of 6

CN(C)CC1CCC/C(=C\C=C\c2ccccc2)C1=O (stereo unspecified)
survivor count (dose: 8.75 mg/kg/injection, schedule: Q01DX009 (ip), vehicle: Klucel (hydroxypropylcellulose) (HPC)): 6 of 6
survivor count (dose: 160.0 mg/kg/injection, schedule: Q04DX003 (ip), vehicle: Klucel (hydroxypropylcellulose) (HPC)): 3 of 6
survivor count (dose: 240.0 mg/kg/injection, schedule: Q04DX003 (ip), vehicle: Klucel (hydroxypropylcellulose) (HPC)): 0 of 6

CC1=NN(c2ccc(S(=O)(=O)O)cc2)C(=O)/C1=C/c1ccc(Cl)cc1
survivor count (dose: 200.0 mg/kg/injection, schedule: Q01DX009 (ip), vehicle: saline): 3 of 6
survivor count (dose: 400.0 mg/kg/injection, schedule: Q01DX009 (ip), vehicle: saline): 5 of 6

CC12CCC(C(N)C1=O)C2(C)C (stereo unspecified)
survivor count (dose: 300.0 mg/kg/injection, schedule: Q01DX009 (ip), vehicle: saline): 4 of 6
survivor count (dose: 400.0 mg/kg/injection, schedule: Q04DX003 (ip), vehicle: saline): 0 of 6

CNC(=O)C(C)(C)Br
survivor count (dose: 100.0 mg/kg/injection, schedule: Q04DX003 (ip), vehicle: saline): 5 of 6

CN(C)CCCNC1=CC(=O)c2ccccc2C1=O
survivor count (dose: 200.0 mg/kg/injection, schedule: Q01DX009 (ip), vehicle: water): 3 of 6

CO[C@@H]1[C@@H](OC2OC(C)C(OC3CC(C)(O)C(OC(=O)CC(C)C)C(C)O3)C(N(C)C)C2O)[C@@H](CC=O)C[C@@H](C)C(=O)/C=C/C2O[C@H]2C[C@@H](C)OC(=O)C[C@H]1OC(C)=O (stereo partly specified)
T/C (dose: 300.0 mg/kg/injection, schedule: Q01DX010 (ip), vehicle: water): 136 % of control
T/C [1]: 136 % of control
survivor count [1]: 2 of 6
survivor count (dose: 600.0 mg/kg/injection, schedule: Q01DX010 (ip), vehicle: water): 0 of 6

COc1ccc(C2C(C(=O)OCc3ccccc3)=C(C)NC(C)=C2C(=O)OCc2ccccc2)cc1
survivor count (dose: 25.0 mg/kg/injection, schedule: Q01DX009 (ip), vehicle: distilled water + Tween-80): 6 of 6
survivor count (dose: 50.0 mg/kg/injection, schedule: Q01DX009 (ip), vehicle: distilled water + Tween-80): 6 of 6
survivor count (dose: 100.0 mg/kg/injection, schedule: Q01DX009 (ip), vehicle: distilled water + Tween-80): 6 of 6
survivor count (dose: 200.0 mg/kg/injection, schedule: Q01DX009 (ip), vehicle: distilled water + Tween-80): 6 of 6
survivor count (dose: 400.0 mg/kg/injection, schedule: Q01DX009 (ip), vehicle: distilled water + Tween-80): 6 of 6

CO/N=C/c1cccnc1
survivor count (dose: 200.0 mg/kg/injection, schedule: Q01DX005 (ip), vehicle: saline): 2 of 6

CCOC(=O)C1=C(N)CC(c2ccc(C#N)cc2)NC1c1cccc(OC)c1O (stereo unspecified)
survivor count (dose: 400.0 mg/kg/injection, schedule: Q01DX001 (ip), vehicle: saline with Tween-80): 6 of 6

Cc1c2oc3c(C)ccc(C(=O)NC4C(=O)NC(C(C)C)C(=O)N(C)CC(=O)N(C)CC(=O)N(C)C(C(C)C)C(=O)OC4C)c3nc-2c(C(=O)NC2C(=O)NC(C(C)C)C(=O)N(C)CC(=O)N(C)CC(=O)N(C)C(C(C)C)C(=O)OC2C)c(N)c1=O (stereo unspecified) (I: TV[Sar][Sar][NMeV] / II: TV[Sar][Sar][NMeV]; ester I:1-I:C, II:1-II:C; linker I:N-II:N via Actinocin(9to1); configuration not given here)
T/C (dose: 750.0 micrograms/kg/injection, schedule: Q04DX003 (ip), vehicle: saline + alcohol): 133 % of control
T/C (dose: 1000.0 micrograms/kg/injection, schedule: Q01DX009 (ip), vehicle: saline + alcohol): 125 % of control
survivor count (dose: 2000.0 micrograms/kg/injection, schedule: Q01DX009 (ip), vehicle: saline + alcohol): 8 of 8
T/C (dose: 3000.0 micrograms/kg/injection, schedule: Q04DX003 (ip), vehicle: saline + alcohol): 133 % of control [7 of 8 alive]
survivor count (dose: 6000.0 micrograms/kg/injection, schedule: Q04DX003 (ip), vehicle: saline + alcohol): 3 of 8 and 5 of 8
